Source: the supplement of paper PMC12067093, “Discovery and optimisation of a covalent ligand for TRIM25 and its application to targeted protein ubiquitination” (Chemical Science, 2025)
The other results are listed elsewhere or left out.

Sequences of proteins named here, by UniProt entry; tags and fusion partners are left off. A change or cut given only in a name is not applied to a line headed by its entry.
UniProt Q96MX6, whole entry, looked up: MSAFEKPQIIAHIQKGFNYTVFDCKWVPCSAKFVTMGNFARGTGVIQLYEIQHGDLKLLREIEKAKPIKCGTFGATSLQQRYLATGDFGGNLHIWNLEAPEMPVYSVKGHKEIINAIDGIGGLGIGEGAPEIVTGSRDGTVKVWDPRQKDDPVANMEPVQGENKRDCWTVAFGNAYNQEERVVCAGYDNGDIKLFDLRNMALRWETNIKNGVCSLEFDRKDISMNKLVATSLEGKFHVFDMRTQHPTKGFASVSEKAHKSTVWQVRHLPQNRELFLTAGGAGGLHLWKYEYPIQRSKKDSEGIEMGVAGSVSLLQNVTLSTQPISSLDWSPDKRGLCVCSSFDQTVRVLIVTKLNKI
UniProt Q6PJI9: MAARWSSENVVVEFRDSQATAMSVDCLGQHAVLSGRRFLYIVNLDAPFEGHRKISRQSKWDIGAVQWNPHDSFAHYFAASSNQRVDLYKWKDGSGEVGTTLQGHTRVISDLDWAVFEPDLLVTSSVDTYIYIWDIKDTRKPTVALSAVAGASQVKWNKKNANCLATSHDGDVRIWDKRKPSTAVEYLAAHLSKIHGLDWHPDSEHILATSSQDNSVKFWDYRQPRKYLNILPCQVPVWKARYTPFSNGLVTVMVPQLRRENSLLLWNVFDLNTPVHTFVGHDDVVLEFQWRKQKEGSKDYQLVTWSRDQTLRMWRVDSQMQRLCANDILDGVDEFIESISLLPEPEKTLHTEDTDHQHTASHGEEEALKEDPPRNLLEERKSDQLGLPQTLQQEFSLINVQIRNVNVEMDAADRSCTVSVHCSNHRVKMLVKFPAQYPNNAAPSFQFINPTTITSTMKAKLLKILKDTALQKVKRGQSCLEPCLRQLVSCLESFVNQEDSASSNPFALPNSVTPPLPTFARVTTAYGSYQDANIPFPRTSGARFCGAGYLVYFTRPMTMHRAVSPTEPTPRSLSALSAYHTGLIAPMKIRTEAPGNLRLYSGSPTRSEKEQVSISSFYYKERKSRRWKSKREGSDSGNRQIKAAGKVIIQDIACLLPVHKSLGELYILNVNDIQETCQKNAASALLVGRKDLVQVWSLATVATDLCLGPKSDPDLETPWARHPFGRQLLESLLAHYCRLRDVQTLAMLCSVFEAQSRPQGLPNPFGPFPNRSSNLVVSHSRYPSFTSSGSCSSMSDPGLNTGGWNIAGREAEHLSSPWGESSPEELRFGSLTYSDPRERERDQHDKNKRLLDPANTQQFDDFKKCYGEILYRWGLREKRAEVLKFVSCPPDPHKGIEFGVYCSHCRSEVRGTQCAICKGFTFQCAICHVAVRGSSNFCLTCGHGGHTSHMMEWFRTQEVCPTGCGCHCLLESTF
UniProt Q96HA8: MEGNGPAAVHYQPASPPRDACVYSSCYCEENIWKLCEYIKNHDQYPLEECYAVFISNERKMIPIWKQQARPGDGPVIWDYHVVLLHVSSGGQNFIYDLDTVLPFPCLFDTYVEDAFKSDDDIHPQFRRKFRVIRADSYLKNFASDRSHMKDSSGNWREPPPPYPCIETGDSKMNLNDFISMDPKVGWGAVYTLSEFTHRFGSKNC
UniProt Q6ZS81: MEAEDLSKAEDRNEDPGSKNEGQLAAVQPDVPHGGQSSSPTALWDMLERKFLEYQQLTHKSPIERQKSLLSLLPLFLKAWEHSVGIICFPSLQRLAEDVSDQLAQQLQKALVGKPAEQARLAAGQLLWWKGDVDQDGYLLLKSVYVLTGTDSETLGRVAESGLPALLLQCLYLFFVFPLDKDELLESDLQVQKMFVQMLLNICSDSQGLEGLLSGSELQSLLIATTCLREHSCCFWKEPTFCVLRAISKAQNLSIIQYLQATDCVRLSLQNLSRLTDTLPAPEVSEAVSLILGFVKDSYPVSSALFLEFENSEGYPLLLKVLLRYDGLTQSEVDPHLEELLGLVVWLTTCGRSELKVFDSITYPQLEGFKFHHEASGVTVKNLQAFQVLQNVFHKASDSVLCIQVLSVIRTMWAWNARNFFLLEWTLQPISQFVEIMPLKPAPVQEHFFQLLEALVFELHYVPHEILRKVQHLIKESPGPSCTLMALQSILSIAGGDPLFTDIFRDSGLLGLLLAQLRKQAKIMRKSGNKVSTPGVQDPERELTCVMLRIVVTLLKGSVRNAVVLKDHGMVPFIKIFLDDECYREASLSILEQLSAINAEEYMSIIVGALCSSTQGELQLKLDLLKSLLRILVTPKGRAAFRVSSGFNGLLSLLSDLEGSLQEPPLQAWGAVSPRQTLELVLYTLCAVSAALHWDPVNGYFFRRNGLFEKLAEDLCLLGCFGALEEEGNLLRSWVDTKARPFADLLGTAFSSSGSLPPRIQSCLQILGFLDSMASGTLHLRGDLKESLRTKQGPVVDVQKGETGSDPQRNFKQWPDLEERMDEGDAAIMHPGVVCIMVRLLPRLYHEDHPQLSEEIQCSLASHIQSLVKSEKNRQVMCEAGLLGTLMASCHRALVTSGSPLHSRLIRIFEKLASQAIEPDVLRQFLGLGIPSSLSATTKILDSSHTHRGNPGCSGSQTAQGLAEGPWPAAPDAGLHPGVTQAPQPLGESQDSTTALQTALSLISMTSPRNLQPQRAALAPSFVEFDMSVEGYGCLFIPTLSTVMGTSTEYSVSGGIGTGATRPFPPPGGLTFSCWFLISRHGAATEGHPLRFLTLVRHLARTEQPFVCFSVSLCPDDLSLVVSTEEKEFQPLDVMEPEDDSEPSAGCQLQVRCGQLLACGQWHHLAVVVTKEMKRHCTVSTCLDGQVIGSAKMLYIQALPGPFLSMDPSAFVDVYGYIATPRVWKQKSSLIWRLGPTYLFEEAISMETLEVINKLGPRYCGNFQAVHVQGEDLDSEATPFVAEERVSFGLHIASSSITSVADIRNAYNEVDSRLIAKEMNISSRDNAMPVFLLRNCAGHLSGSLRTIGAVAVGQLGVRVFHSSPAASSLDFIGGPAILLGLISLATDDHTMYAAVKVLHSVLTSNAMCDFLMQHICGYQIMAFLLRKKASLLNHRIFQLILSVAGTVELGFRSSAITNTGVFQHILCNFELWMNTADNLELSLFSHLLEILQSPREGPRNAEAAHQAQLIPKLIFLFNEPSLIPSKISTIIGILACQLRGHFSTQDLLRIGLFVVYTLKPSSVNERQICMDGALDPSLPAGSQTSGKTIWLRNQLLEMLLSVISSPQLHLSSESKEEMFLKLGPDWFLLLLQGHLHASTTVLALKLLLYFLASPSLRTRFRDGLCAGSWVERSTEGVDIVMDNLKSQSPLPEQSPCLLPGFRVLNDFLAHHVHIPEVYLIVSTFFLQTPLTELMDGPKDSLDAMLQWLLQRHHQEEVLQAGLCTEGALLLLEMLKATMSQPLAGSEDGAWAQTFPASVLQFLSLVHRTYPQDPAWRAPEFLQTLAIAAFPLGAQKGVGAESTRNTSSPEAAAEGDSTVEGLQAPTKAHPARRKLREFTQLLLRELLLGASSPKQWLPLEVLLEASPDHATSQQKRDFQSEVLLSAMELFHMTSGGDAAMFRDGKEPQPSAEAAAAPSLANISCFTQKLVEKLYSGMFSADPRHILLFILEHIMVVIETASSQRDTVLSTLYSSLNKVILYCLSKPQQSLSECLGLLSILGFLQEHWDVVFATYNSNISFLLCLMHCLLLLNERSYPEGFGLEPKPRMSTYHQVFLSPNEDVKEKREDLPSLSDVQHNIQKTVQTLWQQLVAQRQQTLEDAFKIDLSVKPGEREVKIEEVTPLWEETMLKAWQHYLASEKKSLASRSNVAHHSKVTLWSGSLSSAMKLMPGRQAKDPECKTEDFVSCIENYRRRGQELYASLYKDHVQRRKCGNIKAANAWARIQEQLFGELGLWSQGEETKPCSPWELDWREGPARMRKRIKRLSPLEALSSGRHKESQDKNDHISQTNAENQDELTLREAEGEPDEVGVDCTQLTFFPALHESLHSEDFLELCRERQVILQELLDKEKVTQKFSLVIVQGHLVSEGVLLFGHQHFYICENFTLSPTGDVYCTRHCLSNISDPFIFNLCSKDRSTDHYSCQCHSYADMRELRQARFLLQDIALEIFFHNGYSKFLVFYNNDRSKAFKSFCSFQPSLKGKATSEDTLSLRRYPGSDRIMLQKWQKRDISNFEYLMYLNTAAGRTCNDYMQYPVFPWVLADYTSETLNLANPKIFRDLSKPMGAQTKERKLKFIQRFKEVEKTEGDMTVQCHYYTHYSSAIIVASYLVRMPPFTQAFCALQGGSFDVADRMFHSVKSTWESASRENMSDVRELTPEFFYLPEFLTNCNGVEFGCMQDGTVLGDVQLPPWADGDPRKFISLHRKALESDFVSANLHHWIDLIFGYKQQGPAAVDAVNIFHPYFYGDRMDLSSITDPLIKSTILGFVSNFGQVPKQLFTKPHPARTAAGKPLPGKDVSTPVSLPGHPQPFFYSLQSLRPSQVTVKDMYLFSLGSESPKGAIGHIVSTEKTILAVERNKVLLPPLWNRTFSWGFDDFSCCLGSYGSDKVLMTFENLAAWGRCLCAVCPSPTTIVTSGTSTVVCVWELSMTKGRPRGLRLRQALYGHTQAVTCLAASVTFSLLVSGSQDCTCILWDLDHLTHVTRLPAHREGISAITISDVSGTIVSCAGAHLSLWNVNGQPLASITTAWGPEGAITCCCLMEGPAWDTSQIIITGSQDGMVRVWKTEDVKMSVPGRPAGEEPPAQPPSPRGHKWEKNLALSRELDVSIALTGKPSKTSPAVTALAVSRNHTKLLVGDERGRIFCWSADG
UniProt Q8NEZ3: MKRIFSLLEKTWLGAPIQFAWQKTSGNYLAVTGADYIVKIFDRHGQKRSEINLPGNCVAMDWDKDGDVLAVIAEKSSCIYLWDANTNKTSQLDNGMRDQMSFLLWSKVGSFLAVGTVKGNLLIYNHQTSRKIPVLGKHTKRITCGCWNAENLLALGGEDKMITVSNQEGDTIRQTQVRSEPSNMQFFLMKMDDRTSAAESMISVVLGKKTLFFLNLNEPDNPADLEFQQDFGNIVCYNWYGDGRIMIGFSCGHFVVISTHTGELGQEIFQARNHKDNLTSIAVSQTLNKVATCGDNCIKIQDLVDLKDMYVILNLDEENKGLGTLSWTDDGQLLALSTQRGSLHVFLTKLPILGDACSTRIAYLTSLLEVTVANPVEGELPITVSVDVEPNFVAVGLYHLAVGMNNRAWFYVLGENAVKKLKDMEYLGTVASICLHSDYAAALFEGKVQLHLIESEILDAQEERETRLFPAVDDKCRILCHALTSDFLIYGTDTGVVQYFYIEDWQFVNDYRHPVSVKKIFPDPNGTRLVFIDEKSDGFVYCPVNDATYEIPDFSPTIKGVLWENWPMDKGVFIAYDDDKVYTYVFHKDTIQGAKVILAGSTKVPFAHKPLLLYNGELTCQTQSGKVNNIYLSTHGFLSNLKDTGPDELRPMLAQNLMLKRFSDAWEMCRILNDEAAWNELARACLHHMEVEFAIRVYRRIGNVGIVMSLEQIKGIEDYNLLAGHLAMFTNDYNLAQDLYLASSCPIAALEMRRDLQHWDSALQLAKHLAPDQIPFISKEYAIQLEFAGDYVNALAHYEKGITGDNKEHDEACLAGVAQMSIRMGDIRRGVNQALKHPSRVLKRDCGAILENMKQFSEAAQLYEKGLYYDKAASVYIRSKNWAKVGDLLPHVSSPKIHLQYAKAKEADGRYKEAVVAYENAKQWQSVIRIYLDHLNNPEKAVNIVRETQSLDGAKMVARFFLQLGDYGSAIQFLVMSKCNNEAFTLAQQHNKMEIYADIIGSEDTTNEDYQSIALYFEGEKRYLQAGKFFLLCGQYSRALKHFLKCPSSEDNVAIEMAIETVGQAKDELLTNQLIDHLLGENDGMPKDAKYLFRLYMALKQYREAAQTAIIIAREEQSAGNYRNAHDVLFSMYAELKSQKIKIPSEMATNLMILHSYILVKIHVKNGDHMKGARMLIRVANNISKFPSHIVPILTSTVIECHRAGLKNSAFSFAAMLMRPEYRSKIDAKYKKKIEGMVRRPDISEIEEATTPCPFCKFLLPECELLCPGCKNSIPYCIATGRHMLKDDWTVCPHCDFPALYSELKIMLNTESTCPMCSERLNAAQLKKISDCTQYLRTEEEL
UniProt Q9BQA1, whole entry, looked up: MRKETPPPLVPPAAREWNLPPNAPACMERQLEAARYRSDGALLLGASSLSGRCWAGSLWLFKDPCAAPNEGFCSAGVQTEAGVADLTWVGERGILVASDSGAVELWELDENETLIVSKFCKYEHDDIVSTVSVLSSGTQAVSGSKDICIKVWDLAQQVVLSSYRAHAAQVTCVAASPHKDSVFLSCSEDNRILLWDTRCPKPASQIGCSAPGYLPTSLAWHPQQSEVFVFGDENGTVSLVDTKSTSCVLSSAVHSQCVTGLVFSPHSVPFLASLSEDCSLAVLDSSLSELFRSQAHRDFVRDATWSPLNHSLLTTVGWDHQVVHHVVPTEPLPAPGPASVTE

Compound: Cc1cc(ccc1-c1ccccc1)C(=O)N1CCCN(CC1)C(=O)CCl [compound 10]
Assay: probe-labelled cysteine peptide fold change vs DMSO (competition) (log2 fold change); higher = less target engagement (more negative = stronger competition)
Details: THP-1, incubation time: 4 h
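Note: competitive profiling in live THP-1 cells: cysteine peptides tagged with an iodoacetamide desthiobiotin (IA-DTB) probe, intensity after compound treatment relative to DMSO-treated cells.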

| Target | probe-labelled cysteine peptide fold change (10 µM) | probe-labelled cysteine peptide fold change (50 µM) |
| --- | --- | --- |
| WDR76_Q9H967_81_NSNNEVACKK (UniProt Q9H967) | -0.446 | -0.599 |
| WASHC5_Q12768_385_WLMLHTADSACDPNNKR (UniProt Q12768) | -2.11 | -2.63 |
| WDR81_Q562E7_464_SVLCGHVR (UniProt Q562E7) | -0.0534 | -0.275 |
| WDR92_Q96MX6_24_GFNYTVFDCK (UniProt Q96MX6) | 0.113 | 0.165 |
| WDR59_Q6PJI9_737_QLLESLLAHYCR (UniProt Q6PJI9) | 0.158 | 0.178 |
| WDR62_O43379_256_SGILGELHNNIFCGVACGR (UniProt O43379) | -0.111 | 0.518 |
| WDYHV1_Q96HA8_50_NHDQYPLEECYAVFISNER (UniProt Q96HA8) | 0.23 | 0.165 |
| WNK1_Q9H4A3_1135_VVECQLETHNR (UniProt Q9H4A3) | 0.0732 | 0.0576 |
| WDFY4_Q6ZS81_835_MDEGDAAIMHPGVVCIMVR (UniProt Q6ZS81) | -0.0563 | -0.131 |
| WDR59_Q6PJI9_888_FVSCPPDPHK (UniProt Q6PJI9) | 0.00129 | 0.119 |
| WDFY4_Q6ZS81_2283_IQEQLFGELGLWSQGEETKPCSPWELDWR (UniProt Q6ZS81) | -0.0269 | -0.494 |
| WDR19_Q8NEZ3_813_EHDEACLAGVAQMSIR (UniProt Q8NEZ3) | 0.164 | 0.249 |
| WDR77_Q9BQA1_53_CWAGSLWLFK (UniProt Q9BQA1) | -0.0575 | 0.00228 |
| WDR81_Q562E7_1715_SVFFVGQLEAPQHVVSCDGAVHVWDPFTGK (UniProt Q562E7) | -0.0631 | 0.193 |

Some of the entries above, set out differently.
Target | probe-labelled cysteine peptide fold change (10 µM) | probe-labelled cysteine peptide fold change (50 µM)
WDR19_Q8NEZ3_813_EHDEACLAGVAQMSIR (UniProt Q8NEZ3) | 0.164 | 0.249
WDR77_Q9BQA1_53_CWAGSLWLFK (UniProt Q9BQA1) | -0.0575 | 0.00228
WDR81_Q562E7_1715_SVFFVGQLEAPQHVVSCDGAVHVWDPFTGK (UniProt Q562E7) | -0.0631 | 0.193
